Measurements from article PMC7710356, “RNF41 regulates the damage recognition receptor Clec9A and antigen cross-presentation in mouse dendritic cells” (eLife, 2020).
No constants are given. Whether binding was seen depends on the method and setting. In cells and extracts the contact can be indirect. These calls come from enrichment with a bait or labelling near it, and not all partners need be listed. Blank lines part the entries; values can stand above or below the molecule they belong to.

The chains behind the UniProt entries cited, without tags or fusion partners. Where a name states a change or a piece, a line headed by the entry shows the natural chain unless it says otherwise. Residues count along the entry.
UniProt Q8BRU4: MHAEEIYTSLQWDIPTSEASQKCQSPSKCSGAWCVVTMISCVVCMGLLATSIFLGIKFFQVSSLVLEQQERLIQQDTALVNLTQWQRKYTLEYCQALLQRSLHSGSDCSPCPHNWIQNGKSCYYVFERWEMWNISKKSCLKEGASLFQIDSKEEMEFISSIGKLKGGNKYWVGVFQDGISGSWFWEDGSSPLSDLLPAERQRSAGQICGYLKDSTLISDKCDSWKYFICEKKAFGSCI
UniProt P61619: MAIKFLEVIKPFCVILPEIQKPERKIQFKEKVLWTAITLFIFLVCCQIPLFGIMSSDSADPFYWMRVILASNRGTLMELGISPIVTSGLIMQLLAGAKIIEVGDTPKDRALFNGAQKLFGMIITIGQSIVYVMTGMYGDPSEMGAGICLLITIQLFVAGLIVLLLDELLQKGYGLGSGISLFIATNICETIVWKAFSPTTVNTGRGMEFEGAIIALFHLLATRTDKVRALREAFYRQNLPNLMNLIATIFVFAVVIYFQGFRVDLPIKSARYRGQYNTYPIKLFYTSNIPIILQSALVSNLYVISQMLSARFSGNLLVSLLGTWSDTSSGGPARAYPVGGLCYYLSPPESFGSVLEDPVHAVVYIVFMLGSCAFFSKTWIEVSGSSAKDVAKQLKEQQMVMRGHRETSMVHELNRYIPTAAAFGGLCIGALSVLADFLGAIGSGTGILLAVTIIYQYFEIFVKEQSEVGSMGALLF
UniProt P27824, residues 21-592: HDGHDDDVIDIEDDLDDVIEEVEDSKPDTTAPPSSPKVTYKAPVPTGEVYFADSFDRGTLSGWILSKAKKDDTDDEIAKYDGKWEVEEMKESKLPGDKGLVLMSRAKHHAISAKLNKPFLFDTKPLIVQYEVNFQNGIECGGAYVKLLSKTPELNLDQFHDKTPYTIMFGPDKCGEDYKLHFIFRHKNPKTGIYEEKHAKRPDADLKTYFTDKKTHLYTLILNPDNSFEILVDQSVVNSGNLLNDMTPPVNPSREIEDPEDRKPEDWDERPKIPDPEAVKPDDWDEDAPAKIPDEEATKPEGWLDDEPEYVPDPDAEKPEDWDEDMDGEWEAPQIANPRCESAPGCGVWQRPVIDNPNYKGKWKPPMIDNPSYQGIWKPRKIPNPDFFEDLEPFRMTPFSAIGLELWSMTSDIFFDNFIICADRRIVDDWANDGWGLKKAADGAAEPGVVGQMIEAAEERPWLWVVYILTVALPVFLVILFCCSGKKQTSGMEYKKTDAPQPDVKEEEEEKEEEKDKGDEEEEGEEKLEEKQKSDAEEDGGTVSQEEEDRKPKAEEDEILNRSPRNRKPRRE

Target: FLAG-tagged full length mouse Clec9A (mClec9A-FLAG) (mouse) (UniProt Q8BRU4)
Assay: affinity purification with mass spectrometry; 293F cells transfected with mClec9A-FLAG with or without RNF41 or RNF41-ΔRING; anti-FLAG IP in 1% Triton X-100, 150 mM NaCl, 1 mM EDTA, 50 mM Tris pH 6.0; LC-MS/MS

Molecule: calreticulin (CALR; endogenous, 293F cells) (from UniProt P27797 18-417)
- binding: binds

Molecule: translocon Sec61A1 (endogenous, 293F cells) (from UniProt P61619 1-476)
- binding: binds

B1: Erlin2 (endogenous, 293F cells) (protein, UniProt O94905 1-339)
chain: MAQLGAVVAVASSFFCASLFSAVHKIEEGHIGVYYRGGALLTSTSGPGFHLMLPFITSYKSVQTTLQTDEVKNVPCGTSGGVMIYFDRIEVVNFLVPNAVYDIVKNYTADYDKALIFNKIHHELNQFCSVHTLQEVYIELFDQIDENLKLALQQDLTSMAPGLVIQAVRVTKPNIPEAIRRNYELMESEKTKLLIAAQKQKVVEKEAETERKKALIEAEKVAQVAEITYGQKVMEKETEKKISEIEDAAFLAREKAKADAECYTAMKIAEANKLKLTPEYLQLMKYKAIASNSKIYFGKDIPNMFMDSAGSVSKQFEGLADKLSFGLEDEPLETATKEN
- binding: binds

B2: Erlin1 (endogenous, 293F cells) (protein, UniProt O75477 1-348)
chain: MNMTQARVLVAAVVGLVAVLLYASIHKIEEGHLAVYYRGGALLTSPSGPGYHIMLPFITTFRSVQTTLQTDEVKNVPCGTSGGVMIYIDRIEVVNMLAPYAVFDIVRNYTADYDKTLIFNKIHHELNQFCSAHTLQEVYIELFDQIDENLKQALQKDLNLMAPGLTIQAVRVTKPKIPEAIRRNFELMEAEKTKLLIAAQKQKVVEKEAETERKKAVIEAEKIAQVAKIRFQQKVMEKETEKRISEIEDAAFLAREKAKADAEYYAAHKYATSNKHKLTPEYLELKKYQAIASNSKIYFGSNIPNMFVDSSCALKYSDIRTGRESSLPSKEALEPSGENVIQNKESTG
- binding: binds

The remaining lines, values ahead:

- binding: binds
Molecule: calnexin (CANX; endogenous, 293F cells) (from UniProt P27824 21-592)

- binding: binds
B3: RNF41 full-length (mammalian expression construct in pcDNA3.1+) (enzyme, UniProt Q9H4P4 1-317)
chain: MGYDVTRFQGDVDEDLICPICSGVLEEPVQAPHCEHAFCNACITQWFSQQQTCPVDRSVVTVAHLRPVPRIMRNMLSKLQIACDNAVFGCSAVVRLDNLMSHLSDCEHNPKRPVTCEQGCGLEMPKDELPNHNCIKHLRSVVQQQQTRIAELEKTSAEHKHQLAEQKRDIQLLKAYMRAIRSVNPNLQNLEETIEYNEILEWVNSLQPARVTRWGGMISTPDAVLQAVIKRSLVESGCPASIVNELIENAHERSWPQGLATLETRQMNRRYYENYVAKRIPGKQAVVVMACENQHMGDDMVQEPGLVMIFAHGVEEI
